Consider 33 compounds from PubChem BioAssay AID1487 (National Center for Advancing Translational Sciences (NCATS), 2009).

Usually AC50 stands for the midpoint of the concentration-response curve, whichever way the signal moves.

The nature of this experiment: qHTS Assay for Modulators of Lamin A Splicing. The note with it: HeLa LMNA splicing GFP/RFP minigene ratio, 48 h. The essentials:
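S3 HeLa stable clones carrying a lamin A-EGFP splicing minigene plus DsRed2 were seeded at 600 cells/well in Opti-MEM with 2% FBS, pin-dosed and incubated 48 h at 37°C. Acumen cytometry (488 nm) gave the GFP/RFP total-intensity ratio.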
For orientation: In qHTS, concentration-response curves come from the screen itself.

The mark [1] stands for this setting: measured here: RFP viability control channel.
[2] abbreviates: measured here: GFP splicing reporter channel.

The list shows a part of the results. These are further read-outs of the screen, such as a control signal, another cell line or another target. No call is given for them. Compounds called inactive in the main read-out are mostly missing here. Potencies come from curve fits of mixed quality, noted in brackets.

`Cc1ccc(C(=O)NC(c2ccccc2)C(Cl)Cl)cc1` (stereo not given): under setting [1], the AC50 was 2.82 µM [rising, partial curve, poor fit].
`OCC1(CO)COC(c2ccccc2)=N1`: the AC50 is 1 µM [rising, full curve] under setting [2] and 0.0316 µM [rising, full curve, poor fit] under setting [1].
For the compound `Clc1ccccc1CSc1ncn(-c2ccccc2)n1`, the AC50 under setting [2] was 35.5 µM [rising, single point].
With `Cc1cc(C)c(NC(=O)CCC(=O)N2Cc3ccccc3Oc3ncccc32)c(C)c1`, the AC50 runs as follows: under setting [2], 14.1 µM [falling, partial curve]; under setting [1], 7.94 µM [falling, partial curve, poor fit].
For `CCOC(=O)CSC1=NC(=O)/C(=C\c2ccc(Cl)cc2)S1`, the AC50 by setting is: under setting [2], 15.8 µM [falling, partial curve]; under setting [1], 22.4 µM [falling, partial curve].
Consider `c1ccc(N(c2ccccc2)c2nc(N3CCCC3)nc(-n3ccnc3)n2)cc1`, for which the AC50 was 35.5 µM [rising, single point] under setting [2] and 35.5 µM [rising, single point] under setting [1].
As to `CCn1c(-c2sc(-c3ccccc3)nc2C)n[nH]c1=S`, the AC50 runs as follows: under setting [2], 7.08 µM [rising, partial curve]; under setting [1], 3.55 µM [rising, full curve, poor fit].
Turning to `COc1ccc(Nc2cc(C)c3cc(NC(=O)c4cc(OC)cc(OC)c4)ccc3n2)cc1`, the AC50 under setting [1] is 31.6 µM [rising, single point].
Consider `CCN1C(=O)/C(=c2\s/c(=C3\Sc4ccccc4N3C)c(=O)n2C)N(C)C1=S`, for which the AC50 runs as follows: under setting [2], 1.26 µM [falling, full curve, poor fit]; under setting [1], 0.631 µM [falling, full curve].
Turning to `CCN1C(=O)C(CC(=O)Nc2ccc(OC)cc2)N(CCN2CCOCC2)C1=S` (stereo not given), the AC50 under setting [2] was 0.355 µM [rising, partial curve, poor fit].
On the same count and under the same terms, under `Oc1ccccc1C1OCC2(CO1)COC(c1ccccc1O)OC2` (stereo not given) stands 12.6 µM [falling, single point]; under `Cc1ccc(-n2cccn2)c(CN2CCC(CO)(CCc3ccccc3)CC2)c1`, 0.0501 µM [falling, full curve, poor fit].
With `O=C(COc1ccc(Cl)cc1Cl)NCCCCc1ccccc1`, under setting [1], the AC50 was 10 µM [falling, partial curve, poor fit].
Same read-out and setting: under `O=C(Cc1ccccc1)Nc1cccc(C(=O)O)c1O` stands 0.316 µM [falling, full curve].
Same read-out and setting: then `Cc1ccc(NC(=O)c2ccc(CSc3nccc(C)n3)cc2)cc1`, with 15.8 µM [rising, single point]; and `Cc1ccsc1/C=C(\C(=O)c1ccc(OC(C)C)cc1)c1nc2ccccc2o1`, with 11.2 µM [rising, partial curve].
With `Cc1cc(C)c(C#N)c(SCc2nnc(-c3ccccc3)o2)n1`, the AC50 was 14.1 µM [rising, single point] under setting [2] and 35.5 µM [rising, single point] under setting [1].
Regarding `Cc1nc(N2CCOCC2)c2c(C(=O)N3CCN(c4cccc(C)c4C)CC3)c(C)oc2n1`, under setting [1], the AC50 was 0.1 µM [rising, full curve, poor fit].
For the compound `CCOc1ccc(-c2cn3c(n2)sc2cc(C(=O)NC4CCCc5ccccc54)ccc23)cc1` (stereo not given), the AC50 reads like this: under setting [2], 1.78 µM [rising, partial curve]; under setting [1], 11.2 µM [rising, partial curve].
Consider `CCOCCn1c(CN2CCC(Cc3ccccc3)CC2)nc2c1c(=O)n(C)c(=O)n2C`, for which the AC50 is 8.91 µM [rising, partial curve] under setting [2] and 3.16 µM [rising, full curve, poor fit] under setting [1].
With `Cc1ccc(NC(=O)CC(C)S(=O)(=O)c2ccc3c(c2)NC(=O)CO3)cc1C` (stereo not given), the AC50 under setting [1] is 8.91 µM [rising, partial curve].
Same read-out and setting: then `Cc1ccccc1Nc1nc(Nc2ccccc2C)nc(SC2=NCCS2)n1`, with 35.5 µM [rising, single point].
With `COc1ccc(/C=C/C(=O)c2ccc(O)cc2O)cc1`, the AC50 is, setting by setting: under setting [2], 25.1 µM [falling, single point]; under setting [1], 35.5 µM [falling, single point].
As to `COc1ccc(N(Cc2cccs2)C(=O)COc2cc(C)c(Cl)c(C)c2)cc1`, the AC50 under setting [1] is 12.6 µM [rising, partial curve].
`CCCN(c1ccc(C(C)C)cc1)S(=O)(=O)c1c(C)[nH]c(=O)[nH]c1=O`: the AC50 under setting [2] was 14.1 µM [rising, single point].
Turning to `CCOC(=O)/C(=N\Nc1cc(Cl)ccc1Cl)N1CCN(CC)CC1`, the AC50 by setting is: under setting [2], 15.8 µM [falling, partial curve]; under setting [1], 11.2 µM [falling, single point].
As to `COC(=O)[C@@H]1CC[C@H](C)[C@@H](c2ccc(C)cc2)N1C(=O)c1ccc(/C=N/OC[C@@H](O)[C@H]2O[C@@H]3OC(C)(C)O[C@@H]3[C@H]2O)cc1`, the AC50 was 20 µM [rising, single point] under setting [2] and 10 µM [rising, partial curve, poor fit] under setting [1].
For the compound `Cc1cc(N2CCN(C(=O)c3ccco3)CC2)n2nc(-c3cccc(Cl)c3)cc2n1`, the AC50 is 11.2 µM [rising, partial curve] under setting [2] and 12.6 µM [rising, partial curve] under setting [1].
For `Cc1ccc(C2=NN(C(=O)CSc3nc(N)cc(N)n3)C(c3ccco3)C2)cc1` (stereo not given), the AC50 by setting is: under setting [2], 35.5 µM [rising, single point]; under setting [1], 35.5 µM [rising, single point].
For `COCc1cc(CN2CCN(Cc3ccsc3)C(CCO)C2)ccc1OC` (stereo not given), under setting [2], the AC50 is 0.0141 µM [rising, full curve, poor fit].
For `Cc1ccccc1C(=O)NNC(=S)Nc1cccc(C(F)(F)F)c1`, the AC50 by setting is: under setting [2], 3.98 µM [rising, full curve, poor fit]; under setting [1], 1.78 µM [rising, partial curve].
As to `COc1ccccc1Sc1nc(-c2ccccn2)ncc1OC`, the AC50 under setting [2] is 6.31 µM [falling, full curve] and the AC50 under setting [1] is 2.82 µM [falling, full curve, poor fit].
With `O=C(NCc1nnc(SCc2ccc(C(F)(F)F)cc2)n1-c1ccccc1)C12CC3CC(CC(C3)C1)C2`, the AC50 by setting is: under setting [2], 25.1 µM [falling, single point]; under setting [1], 28.2 µM [falling, single point].
